Measurements as given in paper PMC10289378.
No constants are given. Whether binding was seen depends on the method and setting. Binding seen in cells or lysates may run through a third protein. Some entries that bind do so weakly or less than the wild type. For part of these data: Tags and fused reporters may be left off the sequences shown.

T1: LINE-1 (L1) ORF1p (mouse (endogenous in Mael^-/- testis)) (UniProt P11260)
T1 sequence: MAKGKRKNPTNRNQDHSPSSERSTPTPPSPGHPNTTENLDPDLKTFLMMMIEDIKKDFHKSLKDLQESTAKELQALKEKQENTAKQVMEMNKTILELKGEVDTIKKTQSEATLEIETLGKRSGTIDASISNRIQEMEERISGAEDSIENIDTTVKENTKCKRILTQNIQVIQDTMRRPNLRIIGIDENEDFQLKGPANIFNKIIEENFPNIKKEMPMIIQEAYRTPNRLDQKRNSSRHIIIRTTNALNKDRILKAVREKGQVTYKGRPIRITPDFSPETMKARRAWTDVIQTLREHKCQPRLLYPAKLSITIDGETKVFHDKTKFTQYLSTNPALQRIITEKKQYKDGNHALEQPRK

T2: LINE-1 (L1) ORF1p, endogenous in F9 cells (mouse (endogenous in F9 cells)) (UniProt P11260)
T2 sequence: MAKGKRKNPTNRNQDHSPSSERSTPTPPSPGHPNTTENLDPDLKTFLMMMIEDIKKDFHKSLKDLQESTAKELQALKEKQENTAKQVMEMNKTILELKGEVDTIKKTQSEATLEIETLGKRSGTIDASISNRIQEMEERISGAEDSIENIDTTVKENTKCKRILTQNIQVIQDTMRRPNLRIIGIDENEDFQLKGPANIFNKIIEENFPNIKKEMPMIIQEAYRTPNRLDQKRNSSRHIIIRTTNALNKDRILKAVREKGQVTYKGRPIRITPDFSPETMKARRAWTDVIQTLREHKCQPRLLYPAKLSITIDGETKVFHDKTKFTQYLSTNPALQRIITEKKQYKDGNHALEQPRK


Columns and labels:
[1] = molecular target: T1, LINE-1 (L1) ORF1p (mouse (endogenous in Mael^-/- testis)); assay: co-IP; anti-ORF1p immunoprecipitation from RNase-treated (RNase A, T1 and I) Mael^-/- testicular lysate, western blot for PRKRA; isotype IgG as negative control
[2] = molecular target: T1, LINE-1 (L1) ORF1p (mouse (endogenous in Mael^-/- testis)); assay: co-IP; anti-ORF1p immunoprecipitation from untreated Mael^-/- testicular lysate, western blot for PRKRA; isotype IgG as negative control
[3] = molecular target: T2, LINE-1 (L1) ORF1p, endogenous in F9 cells (mouse (endogenous in F9 cells)); assay: co-IP; anti-ORF1p immunoprecipitation from F9 cells transfected with pEGFP or pPRKRA, western blot; isotype IgG as negative control

binding [1]	binding [2]	binding [3]	Binder
binds	binds		PRKRA (protein, UniProt Q9WTX2 1-313) MSHSRHRAEAPPLQREDSGTFSLGKMITAKPGKTPIQVLHEYGMKTKNIPVYECERSDVQVHVPTFTFRVTVGDITCTGEGTSKKLAKHRAAEAAINILKANASICFAVPDPLMPDPSKQPKNQLNPIGSLQELAIHHGWRLPEYTLSQEGGPAHKREYTTICRLESFMETGKGASKKQAKRNAAEKFLAKFSNISPENHISLTNVVGHSLGCTWHSLRNSPGEKINLLKRSLLSLPNTDYIQLLSEIASEQGFNITYLDIEELSANGQYQCLAELSTSPITVCHGSGISCGNAQSDAAHNALQYLKIIAERK
		binds	3XFLAG N-terminally tagged mouse PRKRA (protein, UniProt Q9WTX2 1-313) MSHSRHRAEAPPLQREDSGTFSLGKMITAKPGKTPIQVLHEYGMKTKNIPVYECERSDVQVHVPTFTFRVTVGDITCTGEGTSKKLAKHRAAEAAINILKANASICFAVPDPLMPDPSKQPKNQLNPIGSLQELAIHHGWRLPEYTLSQEGGPAHKREYTTICRLESFMETGKGASKKQAKRNAAEKFLAKFSNISPENHISLTNVVGHSLGCTWHSLRNSPGEKINLLKRSLLSLPNTDYIQLLSEIASEQGFNITYLDIEELSANGQYQCLAELSTSPITVCHGSGISCGNAQSDAAHNALQYLKIIAERK
